Paper PMC7545708, “The small molecule PSSM0332 disassociates the CRL4A^DCAF8 E3 ligase complex to decrease the ubiquitination of NcoR1 and inhibit the inflammatory response in a mouse sepsis-induced myocardial dysfunction model” (International Journal of Biological Sciences, 2020)
No constants are given. Whether binding was seen depends on the method and setting. In cells and extracts the contact can be indirect. Some binding calls cover weakened binding; strength is not graded here. Blank lines part the entries; values can stand above or below the substance they belong to.

By UniProt entry, the sequences of proteins in these tests, tags left out.
UniProt O89090: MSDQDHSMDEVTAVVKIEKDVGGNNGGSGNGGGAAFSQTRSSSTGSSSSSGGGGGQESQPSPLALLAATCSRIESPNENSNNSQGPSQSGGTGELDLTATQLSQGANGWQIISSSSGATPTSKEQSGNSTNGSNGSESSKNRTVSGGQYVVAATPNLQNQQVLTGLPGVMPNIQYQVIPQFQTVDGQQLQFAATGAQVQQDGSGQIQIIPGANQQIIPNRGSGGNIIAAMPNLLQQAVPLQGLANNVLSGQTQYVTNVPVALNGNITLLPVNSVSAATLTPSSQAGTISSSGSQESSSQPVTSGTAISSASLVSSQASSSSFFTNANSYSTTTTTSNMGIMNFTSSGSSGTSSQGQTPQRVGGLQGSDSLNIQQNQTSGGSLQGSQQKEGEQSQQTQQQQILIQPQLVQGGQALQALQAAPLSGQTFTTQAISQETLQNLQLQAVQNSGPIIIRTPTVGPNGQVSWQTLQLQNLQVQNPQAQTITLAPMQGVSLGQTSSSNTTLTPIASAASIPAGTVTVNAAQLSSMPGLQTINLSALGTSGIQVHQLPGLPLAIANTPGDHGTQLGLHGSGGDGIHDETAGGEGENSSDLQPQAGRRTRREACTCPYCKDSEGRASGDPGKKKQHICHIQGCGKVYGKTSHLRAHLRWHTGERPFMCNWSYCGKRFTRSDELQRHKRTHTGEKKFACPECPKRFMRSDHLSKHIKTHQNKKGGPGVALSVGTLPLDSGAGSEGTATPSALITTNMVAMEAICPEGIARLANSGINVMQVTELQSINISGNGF
UniProt Q8N7N5: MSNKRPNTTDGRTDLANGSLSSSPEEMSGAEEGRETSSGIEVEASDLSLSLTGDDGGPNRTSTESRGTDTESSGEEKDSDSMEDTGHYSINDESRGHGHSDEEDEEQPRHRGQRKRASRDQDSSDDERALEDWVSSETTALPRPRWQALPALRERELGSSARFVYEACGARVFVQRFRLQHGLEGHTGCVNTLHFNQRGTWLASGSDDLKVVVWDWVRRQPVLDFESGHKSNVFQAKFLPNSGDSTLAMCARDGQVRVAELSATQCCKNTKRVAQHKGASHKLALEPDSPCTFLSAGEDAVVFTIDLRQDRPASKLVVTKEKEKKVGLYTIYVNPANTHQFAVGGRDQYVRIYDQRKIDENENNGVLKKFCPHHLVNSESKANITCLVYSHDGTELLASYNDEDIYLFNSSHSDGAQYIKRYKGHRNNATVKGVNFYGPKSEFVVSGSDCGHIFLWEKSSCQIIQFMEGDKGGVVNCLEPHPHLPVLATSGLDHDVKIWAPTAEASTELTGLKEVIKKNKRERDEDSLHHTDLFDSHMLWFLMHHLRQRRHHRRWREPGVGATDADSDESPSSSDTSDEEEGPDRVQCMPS
UniProt Q3U1J4: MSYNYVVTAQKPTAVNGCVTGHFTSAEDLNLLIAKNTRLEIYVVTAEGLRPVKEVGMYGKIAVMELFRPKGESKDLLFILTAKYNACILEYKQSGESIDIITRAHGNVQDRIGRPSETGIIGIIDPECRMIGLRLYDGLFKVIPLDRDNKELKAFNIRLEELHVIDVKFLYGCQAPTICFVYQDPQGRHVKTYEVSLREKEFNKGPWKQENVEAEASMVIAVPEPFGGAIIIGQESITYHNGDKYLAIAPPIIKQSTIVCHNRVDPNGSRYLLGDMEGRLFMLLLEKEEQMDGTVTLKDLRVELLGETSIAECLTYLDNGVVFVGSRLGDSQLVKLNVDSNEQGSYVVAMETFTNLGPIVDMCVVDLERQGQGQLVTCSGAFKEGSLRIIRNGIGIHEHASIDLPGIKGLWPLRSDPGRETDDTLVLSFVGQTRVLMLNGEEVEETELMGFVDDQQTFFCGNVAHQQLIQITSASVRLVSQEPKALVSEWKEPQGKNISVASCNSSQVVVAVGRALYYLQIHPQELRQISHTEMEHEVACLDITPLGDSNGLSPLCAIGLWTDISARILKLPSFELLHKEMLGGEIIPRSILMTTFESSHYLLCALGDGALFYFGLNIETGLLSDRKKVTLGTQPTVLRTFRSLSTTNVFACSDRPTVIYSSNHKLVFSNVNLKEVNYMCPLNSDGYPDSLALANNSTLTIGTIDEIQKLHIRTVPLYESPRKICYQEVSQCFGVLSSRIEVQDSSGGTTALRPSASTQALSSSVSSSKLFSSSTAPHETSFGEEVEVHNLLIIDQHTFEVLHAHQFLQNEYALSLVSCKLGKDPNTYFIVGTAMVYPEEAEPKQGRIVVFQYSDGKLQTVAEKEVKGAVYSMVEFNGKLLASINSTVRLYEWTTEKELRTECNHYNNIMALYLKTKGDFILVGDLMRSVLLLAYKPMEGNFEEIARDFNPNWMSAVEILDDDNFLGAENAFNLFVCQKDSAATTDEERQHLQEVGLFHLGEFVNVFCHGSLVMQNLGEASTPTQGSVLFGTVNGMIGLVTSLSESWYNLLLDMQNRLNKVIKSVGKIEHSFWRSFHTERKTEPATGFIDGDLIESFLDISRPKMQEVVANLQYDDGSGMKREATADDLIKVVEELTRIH
UniProt Q60974: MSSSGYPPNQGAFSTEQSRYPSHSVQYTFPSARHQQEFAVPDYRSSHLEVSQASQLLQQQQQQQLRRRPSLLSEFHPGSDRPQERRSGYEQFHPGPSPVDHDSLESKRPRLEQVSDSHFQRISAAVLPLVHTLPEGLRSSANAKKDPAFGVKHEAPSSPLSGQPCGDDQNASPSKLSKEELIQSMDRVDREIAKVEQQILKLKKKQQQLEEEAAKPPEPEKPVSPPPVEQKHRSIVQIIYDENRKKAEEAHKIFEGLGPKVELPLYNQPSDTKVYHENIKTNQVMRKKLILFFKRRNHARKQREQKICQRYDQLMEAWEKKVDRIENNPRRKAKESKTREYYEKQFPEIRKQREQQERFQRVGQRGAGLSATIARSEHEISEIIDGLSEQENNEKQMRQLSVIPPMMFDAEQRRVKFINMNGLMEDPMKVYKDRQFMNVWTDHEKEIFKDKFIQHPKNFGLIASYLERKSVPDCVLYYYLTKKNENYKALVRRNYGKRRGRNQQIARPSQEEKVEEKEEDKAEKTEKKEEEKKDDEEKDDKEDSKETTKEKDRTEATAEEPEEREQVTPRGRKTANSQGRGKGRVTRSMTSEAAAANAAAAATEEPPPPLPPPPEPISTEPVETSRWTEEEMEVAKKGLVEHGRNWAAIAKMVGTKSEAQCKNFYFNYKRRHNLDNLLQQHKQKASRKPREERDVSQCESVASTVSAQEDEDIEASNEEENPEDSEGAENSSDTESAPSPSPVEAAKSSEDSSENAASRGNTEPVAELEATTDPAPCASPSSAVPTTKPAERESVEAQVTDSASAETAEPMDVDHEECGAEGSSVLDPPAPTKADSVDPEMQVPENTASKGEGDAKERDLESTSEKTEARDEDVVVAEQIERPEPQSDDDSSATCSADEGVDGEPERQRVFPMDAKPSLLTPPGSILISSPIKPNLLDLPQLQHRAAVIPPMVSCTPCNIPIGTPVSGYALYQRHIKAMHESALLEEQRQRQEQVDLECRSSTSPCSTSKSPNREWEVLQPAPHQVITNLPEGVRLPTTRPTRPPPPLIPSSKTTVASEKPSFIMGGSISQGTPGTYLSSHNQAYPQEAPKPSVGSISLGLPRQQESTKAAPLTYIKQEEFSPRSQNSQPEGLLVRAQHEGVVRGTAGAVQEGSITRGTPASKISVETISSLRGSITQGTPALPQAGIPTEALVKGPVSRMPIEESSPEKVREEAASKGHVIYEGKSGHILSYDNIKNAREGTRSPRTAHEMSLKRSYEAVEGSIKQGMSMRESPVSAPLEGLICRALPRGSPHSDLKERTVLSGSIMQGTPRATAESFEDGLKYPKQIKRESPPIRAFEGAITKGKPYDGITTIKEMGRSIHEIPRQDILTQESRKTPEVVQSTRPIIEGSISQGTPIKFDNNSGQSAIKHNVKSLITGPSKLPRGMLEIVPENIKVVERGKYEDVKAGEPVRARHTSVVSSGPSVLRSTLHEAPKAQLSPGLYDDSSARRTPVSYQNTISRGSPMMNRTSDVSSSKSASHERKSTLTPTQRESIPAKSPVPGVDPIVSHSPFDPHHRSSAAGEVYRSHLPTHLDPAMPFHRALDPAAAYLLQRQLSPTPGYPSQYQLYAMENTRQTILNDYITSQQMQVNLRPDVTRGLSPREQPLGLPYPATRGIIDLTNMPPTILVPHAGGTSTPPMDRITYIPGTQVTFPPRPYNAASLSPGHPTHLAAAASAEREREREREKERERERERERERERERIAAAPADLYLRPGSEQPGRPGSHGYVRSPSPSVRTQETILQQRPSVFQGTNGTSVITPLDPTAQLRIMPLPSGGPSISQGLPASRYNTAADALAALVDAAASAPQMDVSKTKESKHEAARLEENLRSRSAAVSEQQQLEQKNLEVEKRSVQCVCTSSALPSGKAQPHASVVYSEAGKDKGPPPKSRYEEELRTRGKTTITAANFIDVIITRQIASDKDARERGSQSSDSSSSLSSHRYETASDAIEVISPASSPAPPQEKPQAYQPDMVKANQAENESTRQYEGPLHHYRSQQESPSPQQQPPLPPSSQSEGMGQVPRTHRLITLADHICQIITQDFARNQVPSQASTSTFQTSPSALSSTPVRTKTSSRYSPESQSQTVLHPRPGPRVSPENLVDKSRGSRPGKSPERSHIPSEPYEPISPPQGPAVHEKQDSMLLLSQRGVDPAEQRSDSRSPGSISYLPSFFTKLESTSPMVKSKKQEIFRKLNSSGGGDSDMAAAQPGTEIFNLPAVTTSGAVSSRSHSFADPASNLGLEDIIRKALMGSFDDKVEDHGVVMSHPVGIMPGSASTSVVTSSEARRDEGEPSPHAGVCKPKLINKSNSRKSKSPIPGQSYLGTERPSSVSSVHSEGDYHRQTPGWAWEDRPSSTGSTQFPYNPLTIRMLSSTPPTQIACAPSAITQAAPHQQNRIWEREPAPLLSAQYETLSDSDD

How the values were obtained:
[1] = molecular target: SP1 transcription factor, endogenous in mouse heart tissue (mouse (endogenous in heart tissue)) (UniProt O89090); test: co-IP; endogenous proteins; mixed heart tissues of three control or three SIMD mice lysed in RIPA buffer; IP with antibody-coupled protein A beads (anti-CUL4A, anti-DDB1, anti-DCAF8 or anti-SP1; IgG as control); immunoblot
[2] = molecular target: DCAF8 (DDB1 and CUL4 associated factor 8), endogenous in mouse heart tissue (mouse (endogenous in heart tissue)) (UniProt Q8N7N5); test: as above
[3] = molecular target: DDB1 (DNA damage-binding protein 1), endogenous in mouse heart tissue (mouse (endogenous in heart tissue)) (UniProt Q3U1J4); test: as above
[4] = molecular target: 2xFlag-DDB1 (pcDNA3-2×Flag-DDB1) (UniProt Q3U1J4); test: co-IP; RAW264.7 cells cotransfected with pcDNA3-2×Flag and pcDNA3-6×Myc plasmids, 48 h; lysate with anti-Flag agarose or anti-Myc agarose; 5 washes with RIPA buffer; immunoblot with anti-Flag and anti-Myc
[5] = molecular target: Flag-SP1 (UniProt O89090); test: as above
[6] = molecular target: 2xFlag-DCAF8 (pcDNA3-2×Flag-DCAF8) (UniProt Q8N7N5); test: as above

binding [1]: binds | binding [2]: binds
Substance: NcoR1 (nuclear receptor corepressor 1), endogenous in mouse heart tissue (from UniProt Q60974 1-2453)

Substance: DCAF8 (DDB1 and CUL4 associated factor 8), endogenous in mouse heart tissue (from UniProt Q8N7N5 1-591)
binding [3]: binds

binding [4]: binds | binding [5]: no binding
Substance: 6xMyc-DCAF8 (pcDNA3-6×Myc-DCAF8) (from UniProt Q8N7N5 1-591)

binding [6]: binds | binding [5]: binds
Substance: 6xMyc-NcoR1 (pcDNA3-6×Myc-NcoR1) (from UniProt Q60974 1-2453)
